The target in the assay is T1, FLAG–FLCN (amino-terminally FLAG-tagged folliculin) (UniProt Q8NFG4).
T1 sequence: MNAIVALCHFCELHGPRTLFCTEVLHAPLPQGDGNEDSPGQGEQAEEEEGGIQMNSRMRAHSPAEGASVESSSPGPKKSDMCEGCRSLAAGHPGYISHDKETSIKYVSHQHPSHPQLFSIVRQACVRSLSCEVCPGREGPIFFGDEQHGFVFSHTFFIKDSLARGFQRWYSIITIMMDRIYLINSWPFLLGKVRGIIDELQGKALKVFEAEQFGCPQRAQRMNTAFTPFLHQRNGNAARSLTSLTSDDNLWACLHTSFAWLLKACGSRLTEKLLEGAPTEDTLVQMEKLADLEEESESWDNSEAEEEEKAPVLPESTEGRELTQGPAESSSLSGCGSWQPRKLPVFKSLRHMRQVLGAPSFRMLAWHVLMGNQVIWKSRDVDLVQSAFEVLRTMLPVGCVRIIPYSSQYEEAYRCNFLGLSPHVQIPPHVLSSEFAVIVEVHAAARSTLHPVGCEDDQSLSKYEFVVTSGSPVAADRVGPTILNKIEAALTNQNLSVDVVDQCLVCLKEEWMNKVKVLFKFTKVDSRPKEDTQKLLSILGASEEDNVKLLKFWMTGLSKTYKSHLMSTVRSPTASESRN
Put plainly: affinity purification with mass spectrometry; FLAG–FLCN transiently expressed in HEK293, immunoprecipitated with anti-FLAG M2 affinity gel; gel bands, MALDI–time of flight.

Sequences of proteins named here, by UniProt entry; tags and fusion partners are left off.
UniProt O95433: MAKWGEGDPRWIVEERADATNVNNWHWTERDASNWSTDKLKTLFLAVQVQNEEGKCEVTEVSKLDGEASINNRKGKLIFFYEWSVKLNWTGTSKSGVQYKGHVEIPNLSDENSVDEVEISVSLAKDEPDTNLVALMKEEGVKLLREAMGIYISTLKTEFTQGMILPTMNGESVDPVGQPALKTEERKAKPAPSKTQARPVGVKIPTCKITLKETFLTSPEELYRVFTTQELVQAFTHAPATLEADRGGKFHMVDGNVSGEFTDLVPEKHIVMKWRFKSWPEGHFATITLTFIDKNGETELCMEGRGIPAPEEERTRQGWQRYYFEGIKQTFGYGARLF
UniProt Q99832: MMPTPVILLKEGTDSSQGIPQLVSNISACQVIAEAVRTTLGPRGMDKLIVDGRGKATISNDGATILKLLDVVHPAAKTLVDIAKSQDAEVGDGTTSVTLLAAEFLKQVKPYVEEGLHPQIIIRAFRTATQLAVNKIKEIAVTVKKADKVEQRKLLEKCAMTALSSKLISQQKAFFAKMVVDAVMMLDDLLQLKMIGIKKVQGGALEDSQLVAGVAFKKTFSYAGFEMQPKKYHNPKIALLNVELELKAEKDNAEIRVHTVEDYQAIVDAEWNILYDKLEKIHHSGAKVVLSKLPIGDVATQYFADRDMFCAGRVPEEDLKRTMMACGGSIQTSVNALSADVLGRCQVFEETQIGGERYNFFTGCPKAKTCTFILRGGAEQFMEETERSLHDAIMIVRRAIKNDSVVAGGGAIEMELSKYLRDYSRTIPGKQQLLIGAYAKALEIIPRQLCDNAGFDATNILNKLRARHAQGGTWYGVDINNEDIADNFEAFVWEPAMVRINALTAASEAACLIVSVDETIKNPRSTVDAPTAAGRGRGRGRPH
UniProt P50990: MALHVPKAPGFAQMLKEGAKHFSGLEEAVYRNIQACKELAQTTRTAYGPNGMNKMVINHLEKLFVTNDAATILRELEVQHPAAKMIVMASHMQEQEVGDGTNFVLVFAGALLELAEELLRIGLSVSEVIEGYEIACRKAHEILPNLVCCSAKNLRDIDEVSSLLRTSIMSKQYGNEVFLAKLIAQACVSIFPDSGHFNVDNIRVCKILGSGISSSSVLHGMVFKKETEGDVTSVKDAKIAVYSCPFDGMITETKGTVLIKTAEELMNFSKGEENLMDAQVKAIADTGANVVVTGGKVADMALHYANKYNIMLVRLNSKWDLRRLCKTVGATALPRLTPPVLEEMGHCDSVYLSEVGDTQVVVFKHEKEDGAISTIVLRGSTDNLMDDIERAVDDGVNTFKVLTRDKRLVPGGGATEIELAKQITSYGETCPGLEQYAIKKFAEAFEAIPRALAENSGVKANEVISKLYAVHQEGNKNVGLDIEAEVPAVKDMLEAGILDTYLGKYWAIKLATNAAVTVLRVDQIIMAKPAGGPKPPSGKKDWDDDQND
UniProt Q9UNE7: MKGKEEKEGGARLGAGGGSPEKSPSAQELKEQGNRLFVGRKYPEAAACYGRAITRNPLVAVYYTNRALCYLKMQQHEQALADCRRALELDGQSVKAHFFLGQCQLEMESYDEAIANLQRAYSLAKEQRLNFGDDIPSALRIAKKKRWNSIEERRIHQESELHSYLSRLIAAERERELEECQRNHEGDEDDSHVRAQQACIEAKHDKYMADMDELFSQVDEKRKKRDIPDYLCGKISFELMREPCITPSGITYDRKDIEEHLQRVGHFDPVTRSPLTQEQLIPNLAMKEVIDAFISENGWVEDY

These are yes or no findings as the source states them, for the method shown. In cells and extracts the contact can be indirect. These calls come from enrichment with a bait or labelling near it, and not all partners need be listed. Tags and fused reporters may be left off the sequences shown.

Take “Aha1, endogenous (from UniProt O95433 1-338)”: the binding result is reported as “binds”. For the molecule “CCT7, endogenous (from UniProt Q99832 1-543)”, the binding result is “binds”. Next, “CCT8, endogenous (from UniProt P50990 1-548)”: “binds”; “CHIP, endogenous (from UniProt Q9UNE7 1-303)”: “binds”. Next, “HOP, endogenous (from UniProt P31948 1-543)”: “binds”.

B1: CCT2, endogenous (protein, UniProt P78371 1-535)
chain: MASLSLAPVNIFKAGADEERAETARLTSFIGAIAIGDLVKSTLGPKGMDKILLSSGRDASLMVTNDGATILKNIGVDNPAAKVLVDMSRVQDDEVGDGTTSVTVLAAELLREAESLIAKKIHPQTIIAGWREATKAAREALLSSAVDHGSDEVKFRQDLMNIAGTTLSSKLLTHHKDHFTKLAVEAVLRLKGSGNLEAIHIIKKLGGSLADSYLDEGFLLDKKIGVNQPKRIENAKILIANTGMDTDKIKIFGSRVRVDSTAKVAEIEHAEKEKMKEKVERILKHGINCFINRQLIYNYPEQLFGAAGVMAIEHADFAGVERLALVTGGEIASTFDHPELVKLGSCKLIEEVMIGEDKLIHFSGVALGEACTIVLRGATQQILDEAERSLHDALCVLAQTVKDSRTVYGGGCSEMLMAHAVTQLANRTPGKEAVAMESYAKALRMLPTIIADNAGYDSADLVAQLRAAHSEGNTTAGLDMREGTIGDMAILGITESFQVKRQVLLSAAEAAEVILRVDNIIKAAPRKRVPDHHPC
In the case of B1, the binding entry is “binds”.

The values are drawn from publication PMC4931344, “The FNIP co-chaperones decelerate the Hsp90 chaperone cycle and enhance drug binding” (Nature Communications, 2016).
